This experiment has as its target eel acetylcholinesterase (AChE) (Electrophorus electricus, UniProt O42275). As to the kind of experiment: Eel AChE fluorescence assay (AMPLEX Red kit). The note with it: single-point screen at 20 μM; active = ≥50% inhibition; read-out: inhibition of enzyme activity compared to DMSO control (screen). The class given is biochemical. As for the experimental part: Enzymatic reactions consisted of 50 μM acetylcholine, 200 μM AIVIPLEX™ Red reagent, 1 U/mL horseradish peroxidase, 0.1 U/mL choline oxidase and 0.096 U/mL acetylcholinesterase, with 30 1% DMSO. […] Control reactions lacking acetylcholinesterase but containing 5 μM H2O2 in presence of compounds were analyzed at the same wavelength to exclude compounds that display assay interference. Dose-response curves were performed in duplicate.

Amino acid sequences for entries named in this document (tags omitted). Residues count along the entry.
UniProt O42275, 24-633: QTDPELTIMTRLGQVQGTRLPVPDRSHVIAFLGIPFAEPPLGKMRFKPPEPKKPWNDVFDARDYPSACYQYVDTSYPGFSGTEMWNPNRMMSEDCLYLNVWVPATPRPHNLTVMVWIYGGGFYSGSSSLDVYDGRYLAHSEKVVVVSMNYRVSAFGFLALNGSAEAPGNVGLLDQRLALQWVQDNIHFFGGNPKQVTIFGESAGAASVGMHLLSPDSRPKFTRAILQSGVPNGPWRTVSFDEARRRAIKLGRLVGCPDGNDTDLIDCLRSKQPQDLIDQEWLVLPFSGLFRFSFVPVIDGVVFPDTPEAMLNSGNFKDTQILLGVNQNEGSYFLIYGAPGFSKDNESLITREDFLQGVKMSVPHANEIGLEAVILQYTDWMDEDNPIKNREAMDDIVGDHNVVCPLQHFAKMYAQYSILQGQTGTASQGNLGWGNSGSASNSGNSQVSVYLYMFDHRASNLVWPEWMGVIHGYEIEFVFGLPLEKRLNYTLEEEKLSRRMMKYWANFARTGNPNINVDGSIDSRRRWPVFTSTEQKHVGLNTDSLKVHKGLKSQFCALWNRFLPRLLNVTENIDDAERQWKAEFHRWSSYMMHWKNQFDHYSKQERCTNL

SMILES strings stand for the structures.

As for `CCCCCCCCCCCCCCCC[n+]1ccccc1` [cetylpyridinium], the inhibition at 20 µM is no less than 50%.

What is called inhibition is the change of the read-out against control, counted positive when it falls.

For the origin of these results see patent US20230330045A1 (priority 2020, published 2023).
